For 16 substances, binding results are on record in paper PMC2956695.

Amino acid sequences for entries named in this document (tags omitted). A change or cut given only in a name is not applied to a line headed by its entry.
UniProt Q09794: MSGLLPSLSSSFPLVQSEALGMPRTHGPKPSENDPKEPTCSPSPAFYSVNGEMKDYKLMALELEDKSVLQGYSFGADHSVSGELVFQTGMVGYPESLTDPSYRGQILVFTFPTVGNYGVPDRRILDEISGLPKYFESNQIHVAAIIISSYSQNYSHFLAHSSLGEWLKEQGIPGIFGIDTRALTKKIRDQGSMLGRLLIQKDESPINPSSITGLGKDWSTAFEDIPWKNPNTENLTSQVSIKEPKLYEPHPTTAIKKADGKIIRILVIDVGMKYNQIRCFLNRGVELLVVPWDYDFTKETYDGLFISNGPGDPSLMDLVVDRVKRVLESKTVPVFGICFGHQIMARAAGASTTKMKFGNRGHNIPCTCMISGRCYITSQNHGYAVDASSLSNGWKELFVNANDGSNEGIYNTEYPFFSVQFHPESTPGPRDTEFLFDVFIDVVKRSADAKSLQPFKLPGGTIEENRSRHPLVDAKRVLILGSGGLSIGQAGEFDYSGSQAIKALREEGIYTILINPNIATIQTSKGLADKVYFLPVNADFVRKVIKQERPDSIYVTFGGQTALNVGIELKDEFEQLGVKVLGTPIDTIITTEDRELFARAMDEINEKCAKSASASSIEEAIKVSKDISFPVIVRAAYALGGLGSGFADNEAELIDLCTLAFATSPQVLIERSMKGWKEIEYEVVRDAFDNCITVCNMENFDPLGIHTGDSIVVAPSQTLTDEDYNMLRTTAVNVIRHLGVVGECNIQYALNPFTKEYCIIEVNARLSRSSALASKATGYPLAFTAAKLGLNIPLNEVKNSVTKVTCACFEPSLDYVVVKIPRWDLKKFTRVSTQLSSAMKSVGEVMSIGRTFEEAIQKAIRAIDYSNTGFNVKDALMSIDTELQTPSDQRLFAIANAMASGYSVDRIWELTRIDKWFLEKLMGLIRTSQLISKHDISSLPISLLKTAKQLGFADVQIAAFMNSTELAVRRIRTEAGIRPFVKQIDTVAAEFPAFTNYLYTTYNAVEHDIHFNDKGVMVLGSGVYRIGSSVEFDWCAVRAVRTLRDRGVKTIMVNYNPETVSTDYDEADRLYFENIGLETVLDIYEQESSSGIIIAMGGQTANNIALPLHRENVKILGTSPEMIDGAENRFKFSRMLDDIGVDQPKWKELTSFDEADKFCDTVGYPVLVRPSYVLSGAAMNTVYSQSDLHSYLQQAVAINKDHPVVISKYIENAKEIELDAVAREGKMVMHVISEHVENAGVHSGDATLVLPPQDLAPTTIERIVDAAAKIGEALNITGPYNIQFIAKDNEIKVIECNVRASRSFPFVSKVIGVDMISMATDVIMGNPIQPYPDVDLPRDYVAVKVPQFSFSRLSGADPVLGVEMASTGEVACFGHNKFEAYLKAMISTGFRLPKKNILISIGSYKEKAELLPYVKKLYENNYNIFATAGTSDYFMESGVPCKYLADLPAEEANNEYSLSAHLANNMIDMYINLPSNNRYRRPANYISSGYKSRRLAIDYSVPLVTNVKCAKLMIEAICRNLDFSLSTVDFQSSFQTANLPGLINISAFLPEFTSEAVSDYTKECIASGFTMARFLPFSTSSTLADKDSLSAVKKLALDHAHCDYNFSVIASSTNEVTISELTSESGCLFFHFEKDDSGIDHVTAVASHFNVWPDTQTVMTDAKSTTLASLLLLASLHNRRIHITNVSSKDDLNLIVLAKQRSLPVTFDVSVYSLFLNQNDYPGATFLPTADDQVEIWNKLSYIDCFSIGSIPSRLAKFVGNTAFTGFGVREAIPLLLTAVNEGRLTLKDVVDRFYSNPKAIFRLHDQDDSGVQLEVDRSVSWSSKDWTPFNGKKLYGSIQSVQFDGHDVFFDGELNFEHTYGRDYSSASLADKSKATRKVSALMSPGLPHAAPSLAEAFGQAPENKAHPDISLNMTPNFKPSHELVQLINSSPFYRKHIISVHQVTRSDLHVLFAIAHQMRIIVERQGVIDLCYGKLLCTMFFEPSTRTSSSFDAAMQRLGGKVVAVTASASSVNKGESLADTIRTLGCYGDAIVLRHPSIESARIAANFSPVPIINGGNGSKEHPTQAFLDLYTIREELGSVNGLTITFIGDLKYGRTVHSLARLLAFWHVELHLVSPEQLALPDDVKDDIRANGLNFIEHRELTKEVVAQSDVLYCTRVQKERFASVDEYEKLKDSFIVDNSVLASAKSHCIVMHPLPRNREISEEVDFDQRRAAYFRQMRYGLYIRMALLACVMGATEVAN
UniProt O94501: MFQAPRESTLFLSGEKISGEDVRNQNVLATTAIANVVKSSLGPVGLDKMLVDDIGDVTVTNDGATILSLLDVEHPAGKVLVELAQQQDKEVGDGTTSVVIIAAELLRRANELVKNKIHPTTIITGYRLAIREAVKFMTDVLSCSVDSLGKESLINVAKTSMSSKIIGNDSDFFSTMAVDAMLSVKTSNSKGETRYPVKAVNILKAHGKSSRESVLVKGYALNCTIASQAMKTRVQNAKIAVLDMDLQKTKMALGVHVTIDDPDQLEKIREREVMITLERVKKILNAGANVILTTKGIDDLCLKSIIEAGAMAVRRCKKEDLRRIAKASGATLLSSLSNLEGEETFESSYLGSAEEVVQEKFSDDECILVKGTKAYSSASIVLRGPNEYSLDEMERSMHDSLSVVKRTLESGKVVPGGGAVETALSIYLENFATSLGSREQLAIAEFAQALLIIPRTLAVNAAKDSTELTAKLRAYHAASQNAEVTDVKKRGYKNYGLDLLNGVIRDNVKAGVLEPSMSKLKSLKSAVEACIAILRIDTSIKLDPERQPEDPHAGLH
UniProt Q10265: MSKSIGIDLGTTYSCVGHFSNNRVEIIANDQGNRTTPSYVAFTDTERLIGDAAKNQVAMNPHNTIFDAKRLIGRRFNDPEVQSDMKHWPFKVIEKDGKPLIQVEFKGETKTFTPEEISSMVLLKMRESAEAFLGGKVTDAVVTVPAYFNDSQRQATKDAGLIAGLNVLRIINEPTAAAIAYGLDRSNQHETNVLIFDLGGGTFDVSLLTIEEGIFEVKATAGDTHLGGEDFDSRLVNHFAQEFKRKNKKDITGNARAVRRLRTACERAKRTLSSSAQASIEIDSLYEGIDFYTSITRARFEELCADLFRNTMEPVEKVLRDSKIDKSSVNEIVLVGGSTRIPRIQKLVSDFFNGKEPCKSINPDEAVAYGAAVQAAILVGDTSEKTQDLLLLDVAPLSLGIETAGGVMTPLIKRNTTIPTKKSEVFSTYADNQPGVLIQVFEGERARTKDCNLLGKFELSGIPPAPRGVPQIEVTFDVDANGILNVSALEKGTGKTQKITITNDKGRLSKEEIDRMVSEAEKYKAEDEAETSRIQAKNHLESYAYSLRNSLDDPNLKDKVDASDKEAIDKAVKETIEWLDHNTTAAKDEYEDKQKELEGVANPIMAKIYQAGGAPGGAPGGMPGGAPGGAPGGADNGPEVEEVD
UniProt P42656: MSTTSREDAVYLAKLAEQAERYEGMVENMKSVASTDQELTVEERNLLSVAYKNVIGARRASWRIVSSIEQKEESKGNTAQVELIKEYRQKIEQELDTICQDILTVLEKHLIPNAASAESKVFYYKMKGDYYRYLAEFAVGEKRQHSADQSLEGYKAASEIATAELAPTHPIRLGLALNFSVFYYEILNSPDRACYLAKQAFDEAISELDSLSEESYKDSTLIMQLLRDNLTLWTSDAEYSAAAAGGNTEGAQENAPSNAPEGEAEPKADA
UniProt P41887: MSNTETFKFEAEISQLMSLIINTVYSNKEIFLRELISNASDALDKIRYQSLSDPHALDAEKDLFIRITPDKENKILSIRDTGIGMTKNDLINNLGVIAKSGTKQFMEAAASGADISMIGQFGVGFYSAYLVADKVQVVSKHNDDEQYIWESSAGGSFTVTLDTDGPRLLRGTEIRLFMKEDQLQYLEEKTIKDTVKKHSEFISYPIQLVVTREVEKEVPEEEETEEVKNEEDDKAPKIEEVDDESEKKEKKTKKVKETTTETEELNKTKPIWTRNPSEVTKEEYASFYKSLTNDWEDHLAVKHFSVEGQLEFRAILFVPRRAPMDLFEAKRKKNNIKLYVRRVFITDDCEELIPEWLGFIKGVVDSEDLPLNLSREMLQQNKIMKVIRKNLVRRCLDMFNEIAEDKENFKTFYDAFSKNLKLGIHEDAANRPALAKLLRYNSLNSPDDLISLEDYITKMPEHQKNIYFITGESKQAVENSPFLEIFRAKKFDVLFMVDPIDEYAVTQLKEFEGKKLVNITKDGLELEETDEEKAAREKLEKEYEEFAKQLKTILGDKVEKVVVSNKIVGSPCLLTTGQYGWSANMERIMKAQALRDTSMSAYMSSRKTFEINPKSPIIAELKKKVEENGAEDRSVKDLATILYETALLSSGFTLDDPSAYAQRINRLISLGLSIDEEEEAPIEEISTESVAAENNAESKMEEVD
UniProt P04689: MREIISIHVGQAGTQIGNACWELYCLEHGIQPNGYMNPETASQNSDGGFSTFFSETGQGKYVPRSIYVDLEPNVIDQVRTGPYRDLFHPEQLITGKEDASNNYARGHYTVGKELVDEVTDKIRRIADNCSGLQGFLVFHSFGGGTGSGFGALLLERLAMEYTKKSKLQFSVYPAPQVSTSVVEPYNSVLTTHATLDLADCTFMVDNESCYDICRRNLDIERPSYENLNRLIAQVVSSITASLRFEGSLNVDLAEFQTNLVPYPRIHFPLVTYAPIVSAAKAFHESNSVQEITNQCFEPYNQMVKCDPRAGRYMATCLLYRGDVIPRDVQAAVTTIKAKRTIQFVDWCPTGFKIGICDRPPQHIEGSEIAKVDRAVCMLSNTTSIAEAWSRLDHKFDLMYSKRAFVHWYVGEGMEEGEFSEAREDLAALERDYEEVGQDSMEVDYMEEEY
UniProt P31411: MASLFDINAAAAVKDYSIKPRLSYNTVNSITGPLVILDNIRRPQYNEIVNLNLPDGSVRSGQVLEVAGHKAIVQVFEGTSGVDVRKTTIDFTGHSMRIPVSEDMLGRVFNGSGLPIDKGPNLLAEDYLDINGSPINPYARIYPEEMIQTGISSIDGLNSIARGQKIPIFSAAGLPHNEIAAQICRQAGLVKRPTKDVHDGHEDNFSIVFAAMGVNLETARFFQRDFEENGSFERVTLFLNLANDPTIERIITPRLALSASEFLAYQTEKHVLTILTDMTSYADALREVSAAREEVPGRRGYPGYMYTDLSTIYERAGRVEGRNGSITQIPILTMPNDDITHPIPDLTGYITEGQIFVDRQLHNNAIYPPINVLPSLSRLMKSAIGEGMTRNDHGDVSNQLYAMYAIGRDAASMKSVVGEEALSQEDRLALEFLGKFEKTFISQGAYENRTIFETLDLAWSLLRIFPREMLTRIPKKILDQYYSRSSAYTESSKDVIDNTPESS
UniProt P05219: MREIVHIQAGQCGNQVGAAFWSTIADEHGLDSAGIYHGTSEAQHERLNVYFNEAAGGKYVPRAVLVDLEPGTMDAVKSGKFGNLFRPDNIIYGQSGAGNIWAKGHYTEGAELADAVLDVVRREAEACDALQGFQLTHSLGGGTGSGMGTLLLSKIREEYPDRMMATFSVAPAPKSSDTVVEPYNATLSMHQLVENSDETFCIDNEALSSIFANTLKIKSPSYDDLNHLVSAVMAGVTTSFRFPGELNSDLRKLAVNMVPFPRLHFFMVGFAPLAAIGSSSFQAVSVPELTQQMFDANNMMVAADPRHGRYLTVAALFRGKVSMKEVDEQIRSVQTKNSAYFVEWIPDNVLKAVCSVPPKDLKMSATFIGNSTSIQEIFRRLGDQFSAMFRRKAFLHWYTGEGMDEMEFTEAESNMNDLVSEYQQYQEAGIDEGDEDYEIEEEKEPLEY
UniProt Q09188: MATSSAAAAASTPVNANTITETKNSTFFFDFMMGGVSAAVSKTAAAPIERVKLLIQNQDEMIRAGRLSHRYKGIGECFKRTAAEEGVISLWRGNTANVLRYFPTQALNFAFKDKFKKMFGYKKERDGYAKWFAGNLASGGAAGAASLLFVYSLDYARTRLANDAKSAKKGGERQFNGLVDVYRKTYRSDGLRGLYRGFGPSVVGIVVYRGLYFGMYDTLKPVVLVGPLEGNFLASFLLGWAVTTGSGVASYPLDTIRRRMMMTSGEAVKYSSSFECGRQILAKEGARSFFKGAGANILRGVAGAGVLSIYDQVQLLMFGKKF
UniProt Q9Y7X4: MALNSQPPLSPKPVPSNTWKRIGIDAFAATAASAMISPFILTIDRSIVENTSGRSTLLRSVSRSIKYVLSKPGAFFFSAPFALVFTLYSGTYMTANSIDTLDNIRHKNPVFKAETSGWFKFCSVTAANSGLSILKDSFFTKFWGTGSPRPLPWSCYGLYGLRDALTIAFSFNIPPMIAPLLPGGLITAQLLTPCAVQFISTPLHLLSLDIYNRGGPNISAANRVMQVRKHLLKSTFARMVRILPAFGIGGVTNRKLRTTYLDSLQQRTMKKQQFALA

Results are given in words; binding and its absence hold for the method and conditions named. In cells and extracts the contact can be indirect. Here binding means that the protein was enriched with, or labelled near, the bait; the list need not be complete. Where a sequence is shown, tags or fusion partners need not be part of it.

The assay has as its target T1, Slm9-3XFLAG (S. pombe) (UniProt O74309).
T1 sequence: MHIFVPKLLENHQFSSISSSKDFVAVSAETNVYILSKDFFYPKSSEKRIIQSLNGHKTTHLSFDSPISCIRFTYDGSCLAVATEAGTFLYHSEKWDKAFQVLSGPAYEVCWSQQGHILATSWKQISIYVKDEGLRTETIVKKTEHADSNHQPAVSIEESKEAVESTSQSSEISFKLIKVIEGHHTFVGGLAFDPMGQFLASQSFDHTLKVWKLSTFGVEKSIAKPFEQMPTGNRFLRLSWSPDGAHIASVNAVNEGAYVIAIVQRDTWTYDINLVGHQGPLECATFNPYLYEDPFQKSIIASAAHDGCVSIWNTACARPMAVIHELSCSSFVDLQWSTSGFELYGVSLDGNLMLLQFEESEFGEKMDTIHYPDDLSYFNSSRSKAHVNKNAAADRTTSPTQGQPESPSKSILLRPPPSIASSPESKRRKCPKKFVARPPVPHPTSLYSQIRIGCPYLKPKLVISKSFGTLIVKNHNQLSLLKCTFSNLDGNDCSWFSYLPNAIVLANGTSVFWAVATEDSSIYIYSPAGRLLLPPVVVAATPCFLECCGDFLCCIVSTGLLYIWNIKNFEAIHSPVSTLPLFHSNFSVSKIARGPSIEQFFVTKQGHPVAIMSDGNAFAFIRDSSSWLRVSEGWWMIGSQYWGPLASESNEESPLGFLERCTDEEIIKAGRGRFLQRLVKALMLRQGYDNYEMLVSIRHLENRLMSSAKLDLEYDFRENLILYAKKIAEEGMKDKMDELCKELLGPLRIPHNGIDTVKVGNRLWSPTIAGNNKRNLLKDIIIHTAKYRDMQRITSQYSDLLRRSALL
As to the kind of experiment: affinity purification with mass spectrometry; extracts from 5 g of cells expressing Slm9-FLAG, Dynabeads coupled to anti-FLAG M2 antibody for 15 mins, Benzonase treatment, on-bead tryptic digestion, LC-MS/MS; listed proteins found in at least two independent purifications and absent from four control purifications from untagged cells.

For “Ura1, carbamoyl-phosphate synthase (from UniProt Q09794 1-2244)”, the binding entry is on record as “binds”.
On to “Cct1, chaperonin-containing T-complex alpha subunit (from UniProt O94501 1-556)”, for which the binding entry is on record as “binds”.
The value for “Ssa1, Hsp70 protein (from UniProt Q10265 1-644)” was “binds”; that for “Rpt5, 19S proteasome regulatory subunit (S. pombe)” was “binds”.
Under “Rad24, 14-3-3 protein (from UniProt P42656 1-270)” stands “binds”; under “Hsp90 chaperone (from UniProt P41887 1-704)”, “binds”.
In the case of “Tub1, tubulin alpha 2 (from UniProt P04689 1-449)”, the binding result is “binds”.
Consider “Vma2, V-type ATPase V1 subunit B (from UniProt P31411 1-503)”, for which the binding result is “binds”.
Turning to Lys4, homocitrate synthase (S. pombe), the binding result is “binds”.
The value for “Nda3, tubulin beta (from UniProt P05219 1-448)” was “binds”; that for “Anc1, adenine nucleotide carrier (from UniProt Q09188 1-322)” was “binds”.
On to “Cdc48, AAA family ATPase (from UniProt Q9P3A7 1-809)”, for which the binding result was “binds”.
In the case of “Hip3, HIRA interacting protein 3 (from UniProt P87315 1-1630)”, the binding entry is “binds”.
The value for “Rpt2, 19S proteasome regulatory subunit (S. pombe)” was “binds”; that for “SPBC365.16, sequence orphan (from UniProt Q9Y7X4)” was “binds”; that for “Rvb1, AAA family ATPase Rvb1 (from UniProt Q9C0X6 1-456)” was “binds”.
